## Percent effect of library compounds

The chains behind the UniProt entries cited, without tags or fusion partners.
UniProt I6X8D2, whole entry: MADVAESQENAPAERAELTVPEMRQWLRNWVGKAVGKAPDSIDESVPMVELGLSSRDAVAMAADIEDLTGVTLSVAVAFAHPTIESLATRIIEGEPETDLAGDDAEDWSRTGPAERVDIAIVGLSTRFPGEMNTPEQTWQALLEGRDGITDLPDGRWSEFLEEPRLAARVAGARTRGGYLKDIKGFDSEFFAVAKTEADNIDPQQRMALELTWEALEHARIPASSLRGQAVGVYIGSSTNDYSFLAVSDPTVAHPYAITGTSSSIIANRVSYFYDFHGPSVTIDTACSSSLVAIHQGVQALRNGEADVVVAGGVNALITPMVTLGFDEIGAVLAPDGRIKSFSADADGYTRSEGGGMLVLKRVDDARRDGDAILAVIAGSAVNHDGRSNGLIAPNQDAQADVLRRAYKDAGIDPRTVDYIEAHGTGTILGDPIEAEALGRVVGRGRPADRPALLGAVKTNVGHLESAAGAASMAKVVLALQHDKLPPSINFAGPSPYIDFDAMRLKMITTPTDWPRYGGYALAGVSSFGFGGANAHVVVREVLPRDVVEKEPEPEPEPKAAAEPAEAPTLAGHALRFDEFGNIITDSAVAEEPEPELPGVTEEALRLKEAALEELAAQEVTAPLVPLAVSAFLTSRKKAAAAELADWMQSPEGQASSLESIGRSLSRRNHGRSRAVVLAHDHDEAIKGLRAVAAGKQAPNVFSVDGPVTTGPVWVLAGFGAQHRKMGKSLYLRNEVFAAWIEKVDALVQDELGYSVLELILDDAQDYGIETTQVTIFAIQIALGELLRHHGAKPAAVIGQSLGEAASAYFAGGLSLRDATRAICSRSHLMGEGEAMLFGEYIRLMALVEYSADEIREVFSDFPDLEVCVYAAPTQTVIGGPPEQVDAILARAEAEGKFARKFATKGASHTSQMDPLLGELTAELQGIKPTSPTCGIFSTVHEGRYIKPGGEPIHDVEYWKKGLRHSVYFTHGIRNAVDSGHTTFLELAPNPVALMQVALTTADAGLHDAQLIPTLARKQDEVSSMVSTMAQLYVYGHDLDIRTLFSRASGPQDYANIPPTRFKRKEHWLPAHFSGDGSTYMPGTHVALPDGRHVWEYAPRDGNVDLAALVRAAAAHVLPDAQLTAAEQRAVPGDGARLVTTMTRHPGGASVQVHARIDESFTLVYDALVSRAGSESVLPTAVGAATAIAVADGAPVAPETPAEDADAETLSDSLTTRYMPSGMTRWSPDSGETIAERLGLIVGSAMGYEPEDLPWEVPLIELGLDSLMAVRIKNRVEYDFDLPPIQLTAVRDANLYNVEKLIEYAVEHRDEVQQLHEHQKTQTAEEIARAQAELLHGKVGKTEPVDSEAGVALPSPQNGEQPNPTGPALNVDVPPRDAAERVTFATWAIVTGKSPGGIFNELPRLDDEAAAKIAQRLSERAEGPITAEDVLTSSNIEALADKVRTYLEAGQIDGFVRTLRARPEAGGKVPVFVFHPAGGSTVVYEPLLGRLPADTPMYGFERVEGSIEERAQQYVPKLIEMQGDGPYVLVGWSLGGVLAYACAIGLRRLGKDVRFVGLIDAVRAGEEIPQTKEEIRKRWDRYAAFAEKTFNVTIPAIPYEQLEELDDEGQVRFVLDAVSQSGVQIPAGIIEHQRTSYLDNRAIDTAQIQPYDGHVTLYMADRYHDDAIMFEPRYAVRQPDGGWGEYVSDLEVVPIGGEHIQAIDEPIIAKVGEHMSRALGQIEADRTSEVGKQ
UniProt P9WNZ1, whole entry: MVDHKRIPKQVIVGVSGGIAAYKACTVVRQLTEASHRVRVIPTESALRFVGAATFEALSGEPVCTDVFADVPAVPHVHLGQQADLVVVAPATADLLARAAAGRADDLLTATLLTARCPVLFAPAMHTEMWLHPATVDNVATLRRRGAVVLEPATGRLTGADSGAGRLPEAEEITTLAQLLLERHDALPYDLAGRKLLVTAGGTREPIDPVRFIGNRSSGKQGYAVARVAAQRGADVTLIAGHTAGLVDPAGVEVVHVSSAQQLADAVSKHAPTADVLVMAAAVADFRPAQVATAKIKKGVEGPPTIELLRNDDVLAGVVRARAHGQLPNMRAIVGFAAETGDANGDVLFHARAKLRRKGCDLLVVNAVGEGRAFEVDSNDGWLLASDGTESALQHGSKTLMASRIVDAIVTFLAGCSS
UniProt P9WPC5, whole entry: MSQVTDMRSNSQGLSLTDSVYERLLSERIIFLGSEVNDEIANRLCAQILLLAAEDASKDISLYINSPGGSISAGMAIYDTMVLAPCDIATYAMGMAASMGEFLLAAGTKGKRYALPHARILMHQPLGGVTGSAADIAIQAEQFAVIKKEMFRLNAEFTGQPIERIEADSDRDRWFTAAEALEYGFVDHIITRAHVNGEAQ
UniProt P9WPC3, whole entry partner: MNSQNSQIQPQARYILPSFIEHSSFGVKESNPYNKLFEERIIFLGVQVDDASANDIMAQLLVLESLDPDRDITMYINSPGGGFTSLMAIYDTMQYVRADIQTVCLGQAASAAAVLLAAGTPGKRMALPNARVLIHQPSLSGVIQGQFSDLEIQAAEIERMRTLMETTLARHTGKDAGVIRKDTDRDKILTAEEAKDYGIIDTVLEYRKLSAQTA
UniProt P9WFT3, whole entry: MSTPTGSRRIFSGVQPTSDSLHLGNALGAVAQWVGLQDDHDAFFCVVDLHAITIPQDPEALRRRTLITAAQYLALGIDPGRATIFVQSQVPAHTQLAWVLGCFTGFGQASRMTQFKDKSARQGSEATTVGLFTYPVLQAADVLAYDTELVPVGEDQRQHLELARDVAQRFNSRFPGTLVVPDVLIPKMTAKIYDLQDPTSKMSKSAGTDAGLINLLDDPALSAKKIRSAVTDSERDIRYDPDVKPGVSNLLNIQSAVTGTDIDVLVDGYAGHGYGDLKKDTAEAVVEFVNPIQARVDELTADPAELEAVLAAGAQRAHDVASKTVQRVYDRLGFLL

Values are the deposited “Percent Effect”, in %.
The controls that fix the scale are not given in the record; negative values are as filed.
Compounds were drawn at random from those tested, without regard to their results.
Two or more numbers in one place are separate tests of the same structure; such repeats can differ widely.
A dash means the value is not listed here; it may have been measured.

Pks13 thioesterase: 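Enzyme assay of the thioesterase domain of polyketide synthase 13; the read-out is not stated. Target: Polyketide synthase Pks13, Mycobacterium tuberculosis (UniProt I6X8D2). Concentration: 30 µM. The record gives no direction; the compounds picked for IC50 retests had high values, so higher reads as stronger inhibition. Size under these conditions: about 67,000 compounds, about 300 of them at 50% or above in at least one test.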
Toxoplasma: 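Assay of Toxoplasma gondii numbers, read through their beta-galactosidase reporter with a colour substrate. Compounds at 10 µM. The record gives no direction; the compounds picked for IC50 retests had high values, so higher reads as fewer parasites. Size under these conditions: about 67,000 compounds, about 260 of them at 50% or above in at least one test.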
CoaBC: 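Enzyme assay of CoaBC with a phosphate dye (Biomol Green) read at 650 nm. Target: Coenzyme A biosynthesis protein CoaBC, Mycobacterium tuberculosis (UniProt P9WNZ1). Concentration: 30 µM. Direction is inferred from only a few compounds that gave an IC50; most scored high, so higher reads as stronger inhibition. Most strong results did not repeat in a second test. Size under these conditions: about 67,000 compounds, about 40 of them at 50% or above in at least one test.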
ClpP1P2: 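Protease assay of ClpP1P2, read by the AMC dye that it sets free. Target: ClpP1P2, Mycobacterium tuberculosis (UniProt P9WPC5 and UniProt P9WPC3). Compounds at 50 µM. Direction is inferred from only a few compounds that gave an IC50; most scored high, so higher reads as stronger inhibition. Most other retested compounds had strongly negative values. Of about 69,000 compounds tested this way, about 10 (0.015%) reached 50% or more in at least one test.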
Leishmania in macrophages: 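Cell assay of Leishmania donovani living inside macrophages; the read-out is not stated. Concentration: 30 µM. Direction is inferred from retests: higher values go with stronger inhibition. Of about 69,000 compounds tested this way, about 1,000 (1.5%) reached 50% or more in at least one test.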
MtTrpRS: 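Enzyme assay of tryptophanyl-tRNA synthetase; the read-out is not stated. Target: Tryptophan-tRNA ligase, Mycobacterium tuberculosis (UniProt P9WFT3). Compounds at 10 µM. Higher most likely means stronger inhibition; the record gives no direction and few retests gave an IC50. Of about 65,000 compounds tested this way, about 64 (0.098%) reached 50% or more in at least one test.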

Compound	Pks13 thioesterase	Toxoplasma	CoaBC	ClpP1P2	Leishmania in macrophages	MtTrpRS
O=C(Cc1ccc(F)cc1)N1C[C@H]2CCN[C@H]2C1	-16.81	-	-0.9009	-2.485	-	-4.797
CCn1nnnc1-c1cccc(NC(=O)COC2CCCC2)c1	6.521	-2.044	-1.195	-3.029	5.006	13.47
O=C(C1CCCC1)N1CC2(CCN(C3COC3)CC2)Cc2ccccc21	-2.007	5.544	1.053	-2.114	-6.091	-8.902
CCc1ccc(O)c(C(=O)N2CCN(CC(=O)N(C)C)CC2)c1	-47.51	3.373	7.025	-2.395	13.91	-1.838
CC(C)(C)n1ncc(NCCc2ccccc2C(F)(F)F)c(Cl)c1=O	-9.192	14.34	8.418	-0.04607	30.78	0.6452
NC(=O)C1(CCCc2ccccn2)CCCN(Cc2ccncc2)C1 (centres unmarked)	-	11.4	-0.2421	-5.319	-7.71 and 2.594	-
COC(=O)C1CN(Cc2ccn(-c3ccc(F)cc3)n2)CCO1 (centres unmarked)	0.3355	2.953	7.485	9.194	-7.944	-0.4112
CC(=O)N1CCC(c2nccnc2-c2ccc(F)cc2)CC1	-4	-10.65	0.9804	7.834	6.096	-
O=C(NCCn1cccc1)c1c(O)cc(F)cc1F	-7.669	-27.79	-0.7229	-5.413	-55.3	3.042
CC(C)COC(=O)N1CCCN(C(C)c2nnc(CC(C)C)o2)CC1 (centres unmarked)	-16.58	-2.632	-0.8929	-2.152	13.95	0.516
Cl.O=C(Nc1ccccc1F)C1=NOC2(CCNCC2)C1	-	2.66	-	-	-5.876	-
CN1CCN(C(=O)[C@H]2CC[C@@H]3[C@@H](CCN3Cc3ccsc3)O2)CC1	-12.73	-	6.189	6.532	-	2.766
Cc1cccc(CN2CCC3(CCN(c4ncccn4)C3)C2=O)c1 (centres unmarked)	-24.3	-18.53	4.762	2.127	3.315	-0.7267
Cc1cc(CN2Cc3ccccc3CC2c2nnc(C)o2)no1 (centres unmarked)	-10.54	3.997	2.089	-37.42	-14.37	-9.279
COC(=O)COn1c(SCC(=O)OC)nc2ccccc2c1=O	9.511	-4.406	-0.2532	4.71	9.627 and 6.407	0.4772
CNc1cccc(CC2COCCN(C(=O)c3cnn(C)c3)C2)n1 (centres unmarked)	13.78	5.42	1.675	-3.698	24.08	-4.688
Cc1noc2nc(C3CCN(Cc4ccncc4)CC3)cc(C(F)F)c12	-47.86	14.8	-7.778	-3.42	1.488	0.9197
CC(C)CN1CCC2(C=C(C(=O)NC3CC3)c3ccccc32)CC1	-22.72	-	3.732	-3.637	-	-8.43
Cc1cc(C)cc(CN2CCCC2c2noc(C)n2)c1 (centres unmarked)	-11.59	-4.539	-0.9926	-9.84	8.643	2.728
CC(C)N1CCO[C@H]2CN(C(=O)c3ccccn3)C[C@H]21	-6.499	-	10.75	6.127	-	2.063
Fc1cccc(-c2nnn3c2COCC(CNCc2nccs2)C3)c1.O=C(O)C(F)(F)F (centres unmarked)	-	11.68	-	-	21.7	-
O=C(O)C(F)(F)F.[H][C@]12CCN(Cc3ccco3)C[C@@]1([H])OCCN(C(=O)c1ccsc1)C2	-	-10.35	-	-	19.4	-
[H][C@@]12CN(Cc3ccccn3)C(=O)N1CCN(C1CCOCC1)C2	-	1.463	-	-	34.19	-
CCCc1cc(NCCn2cccn2)n2ncnc2n1	-21.15	5.621	-5.372	-11.99	16.96	-0.2901
Fc1ccc(OCc2nnc([C@H]3CCN(Cc4ccccn4)C3)o2)cc1	6.404	-5.071	6.998	0.09108	-7.206	0.07531
CCc1cnc(N)nc1NCc1ccc(OC)cc1OC	-4.132	-9.043	-21.79	-18.7	4.954	-2.355
CCCc1n[nH]c(=O)n1Cc1ccccc1F	-6.853	-0.8965	-1.631	-7.058	-16.95	-0.8675
CNC(=O)c1cccc(NC(=O)CN2CCCN(S(C)(=O)=O)CC2)c1	-14.87	5.346	5.948	15.31	10.82	2.917
Cc1ccnn1CC(=O)N1CCN(C2CCc3ccccc3C2)CC1 (centres unmarked)	34.08	-10.46	-3.738	-1.066	-41.44	-2.804
CC(C)n1ccnc1CN1CCCN(C(=O)CC2C=CCC2)CC1 (centres unmarked)	-20.29	0.6187	3.916	-2.061	-13.1	0.6823
CC(C)(O)CN1CCN(C(=O)COCC(F)(F)F)CC1	-11.77	-10.66	0.7371	-3.143	23.78	2.179
COCCN1CCC2(COCCN(Cc3ccc4c(c3)OCO4)C2)C1 (centres unmarked)	-	-	5.691	3.756	-	-5.5

The last 3 entries again:

Compound,Pks13 thioesterase,Toxoplasma,CoaBC,ClpP1P2,Leishmania in macrophages,MtTrpRS
CC(C)n1ccnc1CN1CCCN(C(=O)CC2C=CCC2)CC1 (centres unmarked),-20.29,0.6187,3.916,-2.061,-13.1,0.6823
CC(C)(O)CN1CCN(C(=O)COCC(F)(F)F)CC1,-11.77,-10.66,0.7371,-3.143,23.78,2.179
COCCN1CCC2(COCCN(Cc3ccc4c(c3)OCO4)C2)C1 (centres unmarked),-,-,5.691,3.756,-,-5.5

Source: ChEMBL document CHEMBL3988442, “University of Dundee, Small-Polar-MMV Screening Library” (2021).